Our source for the binding values is article PMC7324386.

The target of experiment [1] is CDC48B (yeast two-hybrid fusion) (Arabidopsis thaliana). The experiment in a line: two-hybrid; GAL4 system (pGBKT7, pGADT7), Y187 and Y2HGold mated, diploid yeasts on QDO medium (SD-Leu/-Trp/-His/-Ade), 30 °C, 3 days.
Experiment [2] concerns the target CDC48C (yeast two-hybrid fusion) (Arabidopsis thaliana). Described as above.

Results are given in words; binding and its absence hold for the method and conditions named. Binding calls can cover weak binding; strength is not graded here. Where a sequence is shown, tags or fusion partners need not be part of it.

B1: UFD1B (yeast two-hybrid fusion) (protein, UniProt Q9SJV0 1-340)
chain: MVLRFCCHLLTYSVSLLPPITMFFDGYHYHGTTFEQSYRCYPASFIDKPQLESGDKIIMPPSALDRLASLHIDYPMLFELRNAGIERVTHCGVLEFIAEEGMIYMPYWMMQNLLLQEGDIVRVRNVTLPKGTYVKLQPHTTDFLDISNPKAILETALRNYSCLTSGDSIMVPYNNKKYFIDIVETKPANAISIIETDCEVDFAPPLDYKEPERPTAPSAAKGPAKAEEVVDEPEPKFNPFTGSGRRLDGRPLAYEPAPASSSKGKQPVVANGNGQSSVASSSEKATRAQGKLVFGANGNRAPKEAAPKVGAAKETKKEEQEKKDEPKFQAFSGKKYSLRG
B1: the binding result in experiment [1] was “binds”; in experiment [2], “binds weakly”.

B2: PUX4 (yeast two-hybrid fusion) (protein, UniProt Q8RWU7 1-303)
chain: MSSKDKKPSKPSSSRGGIRTLSDLNRRSGPDSDSDSDGPQEYYTGGEKSGMLVQDPSKKDDVDEIFNQARQLGAVEGPLEPPPSSRSFTGTGRLLSGENVPTGNQQPEPVVHNIVFWSNGFTIDDGPLRKLDDPENASFLESIRKSECPKELEPADRRAPVHVNLMRKEEKCPERQKRRVSFQGVGRTLGGSNEGSGSSSPVAPDSAPIPIQTEPAPSQSLVIDETVPTTSIQLRLADGTRLVAKFNHHHTVNDIRGFIDSSRPGASLNYQLQTMGFPPKPLTDLTQTIEEAGLANSVVLQKF
As to B2, the binding entry in experiment [1] and in experiment [2] was “binds” in each case.

B3: UFD1C (yeast two-hybrid fusion) (protein, UniProt Q8W570 1-311)
chain: MFYDGYAYHGTTFEQTYRCYPSSFIDKPQIESGDKIIMPPSALDRLASLQIDYPMLFELRNASTDSFSHCGVLEFIAEEGVIYIPYWMMQNLLLQEGDMVRVRNVTLPKGTYVKLQPHTTDFLDIANPKAILETALRNYSCLTVGDSIMVPYNNKKYFIDIVEAKPSNGISIIETDCEVDFAPPLDYKEPERPVAPAPAKAKEVDVAEAEPKFNPFTGSGRRLDGRPLSYEPQPGAANSNGQSHPVASSSSSGSEKATQQNRGKLVFGSNVERSTKETTKVGAGKDRKQEEEAEKEAKFQAFSGKKYSLRG
On to B3, for which the binding result in experiment [1] and in experiment [2] was “binds” each time.

B4: PUX5 (yeast two-hybrid fusion) (protein, UniProt Q7Y175 1-421)
chain: MATETNENLINSFIEITSSSREEANFFLESHTWNLDAAVSTFLDNDAAAAAEPNPTGPPPPSSTIAGAQSPSQSHSPDYTPSETSPSPSRSRSASPSSRAAPYGLRSRGGAGENKETENPSGIRSSRSRQHAGNIRTFADLNRSPADGEGSDSDEANEYYTGGQKSGMMVQDPKKVKDVDELFDQARQSAVDRPVEPSRSASTSFTGAARLLSGEAVSSSPQQQQQEQPQRIMHTITFWLNGFTVNDGPLRGFSDPENAAFMNSISRSECPSELEPADKKIPVHVDLVRRGENFTEPPKPKNPFQGVGRTLGASGSGSSSAPQASSAPMNVAPAPSRGLVVDPAAPTTSIQLRLADGTRLVSRFNNHHTVRDVRGFIDASRPGGSKEYQLLTMGFPPKQLTELDQTIEQAGIANAVVIQKF
Turning to B4, the binding entry in experiment [1] and in experiment [2] was “binds” in each case.
